This passage reports binding results from article PMC3402419.

Amino acid sequences for entries named in this document (tags omitted).
UniProt Q99471: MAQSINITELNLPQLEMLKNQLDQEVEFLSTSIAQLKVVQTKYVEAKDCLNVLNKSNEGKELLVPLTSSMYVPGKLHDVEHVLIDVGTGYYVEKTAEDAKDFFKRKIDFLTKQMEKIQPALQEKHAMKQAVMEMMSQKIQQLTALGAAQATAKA
UniProt Q9UHV9: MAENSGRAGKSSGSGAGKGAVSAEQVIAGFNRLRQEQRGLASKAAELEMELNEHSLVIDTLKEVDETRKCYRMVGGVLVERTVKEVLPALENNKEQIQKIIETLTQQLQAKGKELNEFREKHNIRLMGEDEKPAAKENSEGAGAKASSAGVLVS
UniProt P61758: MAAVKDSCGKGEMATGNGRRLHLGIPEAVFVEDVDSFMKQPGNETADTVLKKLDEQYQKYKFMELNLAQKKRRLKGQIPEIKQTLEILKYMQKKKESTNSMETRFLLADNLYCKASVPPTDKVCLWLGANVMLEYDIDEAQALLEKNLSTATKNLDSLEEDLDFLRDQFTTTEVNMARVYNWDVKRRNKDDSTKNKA

These are yes or no findings as the source states them, for the method shown. Binding seen in cells or lysates may run through a third protein. These calls come from enrichment with a bait or labelling near it, and not all partners need be listed.

The target of this assay is FLAG-tagged MM-1α (UniProt Q99471). The assay is described as follows: affinity purification with mass spectrometry; extracts of F-MM-1-expressing H1299 and parental H1299 cells precipitated with agarose-conjugated anti-FLAG (M2); silver-stained specific bands cut out, trypsin, TOF-MS.

Take PFD2 (from UniProt Q9UHV9 1-154): the binding result is “binds”.
The result for PFD3 (from UniProt P61758 1-197) reads “binds”.
